{
  "source": "patent US20220288204A1",
  "about": "“DOSAGE AND ADMINISTRATION OF ANTI-ERBB3 (HER3) MONOCLONAL ANTIBODIES TO TREAT TUMORS ASSOCIATED WITH NEUREGULIN 1 (NRG1) GENE FUSIONS” (ELEVATION ONCOLOGY, INC., priority 2021, published 2022)",
  "key": {"[1]": {"tested_on": "HBECp53 cells", "test": "AlamarBlue viability dose-response (growth inhibition)", "format": "cell-based, human", "details": "96 hours, no NRG1 fusion", "description": "(§1) Expression of […] (FIG. 1A) or SLC3A2-NRG1 (FIG. 2B) fusions in MDA-MB-175-VII and LUAD-0061AS3 cells, respectively, was determined by RT-PCR. The HBECp53 (NRG1 fusion negative) and HBECp53-SLC3A2-NRG1 cells were used as negative and positive controls, respectively. […] Viability results represent the mean±SEM of 2-5 independent experiments in which each condition was assayed in triplicate determinations. Viability data were analyzed by nonlinear regression and the IC50 values for growth inhibition and the 95% confidence interval were determined with GraphPad Prism 8. […] Results represent the mean±SD for one experiment in which each condition was assayed in duplicate.\n(§2) For the time-course experiments, cells were plated at a density of 5,000 (HCC-95) or 10,000 (all others) cells per well in 12-well tissue culture plates, and then treated 24 hours later (time 0) with the respective agents. […] Cells were trypsinized and counted at the relevant time-point shown on the graphs. For dose-response studies, cells were plated at a density of 7,500-10,000 cells in white clear-bottom 96-well plates in a volume of […] complete growth media and […] chemicals added at 10× concentration (to achieve 1× concentration) in a final volume of 100 mL. […] AlamarBlue is a cell permeable […] dye that is reduced when it enters the mitochondria and emits fluorescence at a different wavelength (Gloeckner H, J. Immunol. Methods 2001; 252:131-8). Fluorescence was measured (excitation, 530 nm and emission, 585 nm) using a […] Spectramax M2 Fluorescence Plate Reader, as described previously (Somwar R, J. Biomol. Screen 2009; 14:1176-84). In each experiment, background fluorescence was determined in cells treated with […] of the 20S proteasome inhibitor, carfilzomib, which is toxic to most cells at high concentrations, and was subtracted from all values. […]\n(§3) Cells expressing NRG1 fusions rely on activation of HER3 for growth and survival. […] The estimated IC50 values obtained for growth inhibition are determined."}, "[2]": {"tested_on": "LUAD-0061AS3 cells", "test": "AlamarBlue viability dose-response (growth inhibition)", "format": "cell-based, human", "details": "96 hours", "description": "as §1, §2, §3"}, "[3]": {"tested_on": "MDA-MB-175-VII cells", "test": "AlamarBlue viability dose-response (growth inhibition)", "format": "cell-based, human", "details": "96 hours", "description": "as §1, §2, §3"}, "[4]": {"tested_on": "HBECp53-CD74-NRG1 cells", "test": "Time-course growth by cell counting", "format": "cell-based, human", "details": "afatinib 0.05 μmol/L", "description": "as §1\n(§4) For the time-course experiments, cells were plated at a density of 5,000 (HCC-95) or 10,000 (all others) cells per well in 12-well tissue culture plates, and then treated 24 hours later (time 0) with the respective agents. […] Cells were trypsinized and counted at the relevant time-point shown on the graphs. […] AlamarBlue is a cell permeable […] dye that is reduced when it enters the mitochondria and emits fluorescence at a different wavelength (Gloeckner H, J. Immunol. Methods 2001; 252:131-8). Fluorescence was measured (excitation, 530 nm and emission, 585 nm) using a […] Spectramax M2 Fluorescence Plate Reader, as described previously (Somwar R, J. Biomol. Screen 2009; 14:1176-84). […]"}, "[5]": {"tested_on": "MDA-MB-175-VII cells", "test": "Time-course growth by cell counting", "format": "cell-based, human", "details": "afatinib 0.05 μmol/L", "description": "as §1, §4"}, "[6]": {"tested_on": "LUAD-0061AS3 cells", "test": "Time-course growth by cell counting", "format": "cell-based, human", "details": "afatinib 0.05 μmol/L"}, "[7]": {"tested_on": "LUAD-0061AS3 PDX tumors", "test": "NSCLC PDX model efficacy (SLC3A2-NRG1)", "format": "in vivo, mice", "description": "Characterization of the […] PDX model. H&E staining, TTF-1, and phospho-HER3 IHC (FIG. 5A, left to right). […] (FIG. 5B). Tumor volumes were measured twice weekly and plotted overtime. Results represent the mean±SEM. […] Western blotting was performed twice for each protein and representative immunoblots of phosphorylated (p) and total (t) proteins are shown (FIG. 5C).\nCrushed PDX tumor samples were mixed with Matrigel (50%) and injected into the subcutaneous flank of 6-week-old female NSG (LUAD-0061AS3) or Balb/c nude (OV-10-0050) mice. When tumors reached approximately 100-150 mm3, mice were randomly assigned to groups of 5-8 and treatment was commenced. There were 2 mice per group with bilateral flank tumors for the protein phosphorylation/expression study in the LUAD-0061AS3 PDX model. Drugs were administered once, and then tumors were collected at 2, 24, and 168 hours posttreatment. Afatinib was administered by oral gavage once daily as a suspension (in 0.5% methylcellulose-0.4% Tween-80) on a 5-days-on and 2-days-off schedule. […] Mice were observed daily throughout the treatment period for signs of morbidity and mortality. Tumor length and width and animal weights were measured twice weekly. Tumor volume was calculated using the empirical formula V=length×width 2×0.52. The percentage change in tumor volume of each tumor was calculated using the formula [(V2−V1)/V1)]×100, where V1 is the starting tumor volume and V2 is the final tumor volume.\nThe 5 mg/kg daily dose of afatinib is equivalent to the human dose of […] daily, which is the maximum approved dose for patients.\nThe tumor volume as a function of time is illustrated in FIG. 5B, and the AUC computed for each group to facilitate comparison of tumor volume between groups at the last date all groups had surviving animals (day 35) was determined. […] The highest dose of afatinib (15 mg/kg) was also effective at causing regression of six of seven tumors in the."}, "[8]": {"tested_on": "OV-10-0050 PDX tumors", "test": "HGSOC ovarian PDX model efficacy (CLU-NRG1)", "format": "in vivo, mice", "details": "afatinib 5 mg/kg once daily", "source_text": "IHC characterization of the OV-10-0050 PDX model (FIG. 6A). H&E staining, WT1, and TP53 IHC (left to right). […] (FIG. 6B). Treatment was terminated on day 27 and animals were monitored for tumor regrowth until tumors reached maximum allowable size or until 90 days after treatment initiation. Results represent the mean tumor volume ±SEM. A zoom-in view on tumor volumes during the last 40 days of monitoring of seribantumab-treated groups (right). […] Change in the volume of individual tumors (day 27 vs. volume at start of treatment) (FIG. 6C).\nCrushed PDX tumor samples were mixed with Matrigel (50%) and injected into the subcutaneous flank of 6-week-old female NSG (LUAD-0061AS3) or Balb/c nude (OV-10-0050) mice. When tumors reached approximately 100-150 mm3, mice were randomly assigned to groups of 5-8 and treatment was commenced. […] Tumor length and width and animal weights were measured twice weekly. Tumor volume was calculated using the empirical formula V=length×width 2×0.52. The percentage change in tumor volume of each tumor was calculated using the formula [(V2−V1)/V1)]×100, where V1 is the starting tumor volume and V2 is the final tumor volume.\nRT-PCR confirmed the presence of the CLU-NRG1 fusion. […] Treatment was terminated at day 27 and tumor growth was monitored for an additional 63 days (90 days after initiation of treatment or once tumors reached the maximum allowable size). […]"}, "[9]": {"tested_on": "CTG-0943 PDX tumors", "test": "Pancreatic adenocarcinoma PDX model (APP-NRG1)", "format": "in vivo, mice", "details": "afatinib 5 mg/kg QD", "description": "Mice bearing CTG-0943 PDX tumors (5-8 mice per group) were treated with indicated agents (FIG. 8A). Representative H&E-stained slides of a vehicle-treated tumor (FIG. 8B). Tumor volume, results represent the mean±SEM. […] Change in the volume of individual tumors (vehicle: day 20; treated groups: day 31) compared with day 0(%) (FIG. 8D). Western blot analysis of vehicle, and afatinib and seribantumab-treated tumors. Tumor residues extracted day 24 for vehicle-, day 31 for seribantumab-, and day 32 for afatinib-treated groups. Antibody reactivity with human (H) and/or mouse (M) proteins is indicated.\nModels of isogenic pancreatic cancer cells with NRG1 fusions by lentiviral-mediated cDNA expression of ATP1B1-NRG1 and SLC3A2-NRG1 fusions in immortalized human pancreatic ductal cells (H6c7) were developed. […] Western blotting analysis was used to evaluate protein phosphorylation and expression. The presence of NRG1 fusions was confirmed by reverse transcription polymerase chain reaction (RT-PCR) and next-generation sequencing (NGS).\nThere was no regression of afatinib-treated pancreatic PDX tumors. […] This was confirmed using a human-specific GAPH antibody."}},
  "note": "At least one compound was matched to its structure with a doubt left.",
  "data": [
    {"smiles": "CN(C)C/C=C/C(=O)Nc1cc2c(Nc3ccc(F)c(Cl)c3)ncnc2cc1O[C@H]1CCOC1", "note": "[afatinib, reference compound]", "values": [
      {"measurement": "effect on growth", "setting": "[1]", "value": "minimal effect"},
      {"measurement": "effect on growth", "setting": "[2]", "value": "reduced growth in a dose-dependent manner"},
      {"measurement": "effect on growth", "setting": "[3]", "value": "reduced growth in a dose-dependent manner"},
      {"measurement": "cell growth over time", "setting": "[4]", "value": "effective at inhibiting growth"},
      {"measurement": "cell growth over time", "setting": "[5]", "value": "effective at inhibiting growth"},
      {"measurement": "cell growth over time", "setting": "[6]", "value": "effective at inhibiting growth"},
      {"measurement": "tumor growth", "setting": "[7]; afatinib 5 mg/kg once daily", "value": "small, but significant reduction in tumor growth"},
      {"measurement": "durability of maximum response", "setting": "[7]; afatinib 15 mg/kg once daily", "value": "not sustained for more than a few days"},
      {"measurement": "tumors with regression", "setting": "[7]; afatinib 15 mg/kg once daily", "value": "six of seven"},
      {"measurement": "tumor volume", "setting": "[7]; higher doses of afatinib (10, 15 mg/kg once daily)", "value": "bigger decrease in tumor volume"},
      {"measurement": "tumor growth", "setting": "[8]", "value": "poor antagonist of tumor growth"},
      {"measurement": "tumor growth", "setting": "[8]; listed as Afatinib", "value": "small, but significant decrease in tumor growth"},
      {"measurement": "tumor regression", "setting": "[9]", "value": "no regression"}
    ]}
  ]
}
